PubChem BioAssay AID1053208 | Peter MacCallum Cancer Centre | 2014

Purpose: 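Genes whose silencing cuts survival of bone tumour cells only with doxorubicin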 (primary screen)
Cells: mouse osteosarcoma cells, early-passage culture from an engineered mouse model of fibroblastic bone tumour
Reagent: siRNA pool against mouse genes, 40 nM
Time to read-out: about 120 h (48 h before drug, then 72 h with drug)
Treatment: doxorubicin 100 nM for 72 h, roughly 30-40% inhibitory dose
Read-out: 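Viability read as ATP luminescence after 72 h of 100 nM doxorubicin or none, duplicate wells averaged, scaled to non-targeting siRNA, then expressed as robust z-scores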
Direction: viability z-score with doxorubicin and doxorubicin viability vs non-targeting: higher = more viable cells under doxorubicin; viability z-score without drug: higher = more viable cells with knock-down alone; z-score of drug to no-drug ratio: higher = less drug sensitisation by knock-down
Call rule: 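Called active if knock-down leaves viability unchanged without drug (z within -2 to 2) but lowers it with doxorubicin (z at or under -2)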
In all, the deposit lists about 17,000 reagents; below is an unselected part. In the full data, 788 (4.7%) are marked active. 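Calls rest on z-score classes alone; an extra cut-off of viability at most 70% of control was not applied to them.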

no.	target	combined z-score class	viability z-score with doxorubicin	viability z-score without drug	z-score of drug to no-drug ratio	doxorubicin viability vs non-targeting	Call
1	Usp38 (ubiquitin specific peptidase 38)	no change with or without drug	1.12	0.51	0.9	1.04	inactive
2	Hcn1	no change with or without drug	-0.79	0.34	-0.9	0.87	inactive
3	Abca4 (ATP-binding cassette, sub-family A member 4)	low cell count with doxorubicin only	-2.59	-0.34	-2.47	0.71	active
4	Astn2 (astrotactin 2)	no change with or without drug	1.12	-0.34	1.57	1.04	inactive
5	Fam180a (family with sequence similarity 180, member A)	no change with or without drug	-0.67	0.67	-1.01	0.88	inactive
6	Sfn (stratifin)	no change with or without drug	0.45	1.01	-0.11	0.98	inactive
7	Olig1 (oligodendrocyte transcription factor 1)	no change with or without drug	-1.35	-0.51	-1.01	0.82	inactive
8	Gstt2 (glutathione S-transferase, theta 2)	no change with or without drug	0.45	0.34	0.34	0.98	inactive
9	Akap5 (A kinase anchor protein 5)	no change with or without drug	-0.67	-0.51	-0.22	0.88	inactive
10	Glod4 (glyoxalase domain containing 4)	no change with or without drug	0	-0.84	0.67	0.94	inactive
11	Dhcr24 (24-dehydrocholesterol reductase)	no change with or without drug	1.57	-0.84	2.47	1.08	inactive
12	Pcdhgc3 (protocadherin gamma subfamily C, 3)	no change with or without drug	-1.57	0	-1.57	0.8	inactive
13	Fsd1l (fibronectin type III and SPRY domain containing 1-like)	no change with or without drug	0.22	1.52	-0.67	0.96	inactive
14	Or2r3 (olfactory receptor family 2 subfamily R member 3)	no change with or without drug	-0.45	-0.17	-0.22	0.9	inactive
15	Cryba2 (crystallin, beta A2)	no change with or without drug	-0.56	0.17	-0.56	0.89	inactive
16	Fam111a (family with sequence similarity 111, member A)	no change with or without drug	1.12	-0.51	1.69	1.04	inactive
17	Hcls1 (hematopoietic cell specific Lyn substrate 1)	no change with or without drug	0.67	1.52	-0.22	1	inactive
18	Tbx2 (T-box 2)	no change with or without drug	0.45	0.84	0	0.98	inactive
19	Stard3nl (STARD3 N-terminal like)	no change with or without drug	1.35	0.51	1.12	1.06	inactive
20	Sh3bgr (SH3-binding domain glutamic acid-rich protein)	no change with or without drug	-0.67	-1.69	0.67	0.88	inactive
21	Ssu72 (Ssu72 RNA polymerase II CTD phosphatase homolog (yeast))	no change with or without drug	-0.22	-0.17	0	0.92	inactive
22	Cdkl2 (cyclin dependent kinase like 2)	no change with or without drug	-1.35	-0.17	-1.24	0.82	inactive
23	A730089K16Rik (RIKEN cDNA A730089K16 gene)	no change with or without drug	-1.12	-1.18	-0.34	0.84	inactive
24	Kctd18 (potassium channel tetramerisation domain containing 18)	no change with or without drug	-1.8	0.17	-1.91	0.78	inactive
25	Kif12 (kinesin family member 12)	no change with or without drug	-0.9	-0.84	-0.22	0.86	inactive
26	Tex16 (testis expressed gene 16)	no change with or without drug	1.57	0	1.8	1.08	inactive
27	Tnfsf12 (tumor necrosis factor (ligand) superfamily, member 12)	no change with or without drug	-0.9	-0.17	-0.79	0.86	inactive
28	Zfp946 (zinc finger protein 946)	no change with or without drug	1.01	0.34	0.9	1.03	inactive
29	Dhrs13 (dehydrogenase/reductase 13)	no change with or without drug	0.11	-0.17	0.34	0.95	inactive
30	Cd247 (CD247 antigen)	no change with or without drug	1.46	-1.18	2.7	1.07	inactive
31	5330439B14Rik (RIKEN cDNA 5330439B14 gene)	high cell count with doxorubicin only	2.7	1.52	1.69	1.18	inactive
32	Pla2g7	high cell count without drug only	1.57	2.36	0.11	1.08	inactive
33	Amacr (alpha-methylacyl-CoA racemase)	high cell count with doxorubicin only	2.47	0.34	2.47	1.16	inactive
34	Tor2a (torsin family 2, member A)	no change with or without drug	1.57	-0.84	2.47	1.08	inactive
35	Lrr1 (leucine rich repeat protein 1)	no change with or without drug	-0.79	-1.52	0.34	0.87	inactive
36	Rangap1 (RAN GTPase activating protein 1)	no change with or without drug	1.12	0.17	1.12	1.04	inactive

The list goes on; the last 4 above are carried over.
no.	target	combined z-score class	viability z-score with doxorubicin	viability z-score without drug	z-score of drug to no-drug ratio	doxorubicin viability vs non-targeting	Call
33	Amacr (alpha-methylacyl-CoA racemase)	high cell count with doxorubicin only	2.47	0.34	2.47	1.16	inactive
34	Tor2a (torsin family 2, member A)	no change with or without drug	1.57	-0.84	2.47	1.08	inactive
35	Lrr1 (leucine rich repeat protein 1)	no change with or without drug	-0.79	-1.52	0.34	0.87	inactive
36	Rangap1 (RAN GTPase activating protein 1)	no change with or without drug	1.12	0.17	1.12	1.04	inactive
37	C1galt1c1 (C1GALT1-specific chaperone 1)	no change with or without drug	-1.12	-1.01	-0.45	0.84	inactive
38	Ift20 (intraflagellar transport 20)	no change with or without drug	0.79	1.52	-0.11	1.01	inactive
39	Lama4 (laminin, alpha 4)	no change with or without drug	-0.67	-0.34	-0.34	0.88	inactive
40	Arpc3 (actin related protein 2/3 complex, subunit 3)	no change with or without drug	0.11	0.17	0.11	0.95	inactive
41	Zfp738 (zinc finger protein 738)	no change with or without drug	0	-0.51	0.45	0.94	inactive
42	Tlr8 (toll-like receptor 8)	no change with or without drug	0.67	-0.17	0.9	1	inactive
43	Uba7 (ubiquitin-like modifier activating enzyme 7)	no change with or without drug	-1.35	-0.67	-0.9	0.82	inactive
44	Or1o1 (olfactory receptor family 1 subfamily O member 1)	no change with or without drug	0.9	-0.17	1.24	1.02	inactive
45	Top2a (topoisomerase (DNA) II alpha)	high cell count with doxorubicin only	2.36	0.51	2.14	1.15	inactive
46	Mepce (methylphosphate capping enzyme)	no change with or without drug	-0.79	0.51	-1.01	0.87	inactive
47	Mageb3 (MAGE family member B3)	no change with or without drug	0	-1.52	1.24	0.94	inactive
48	Bcl2 (B cell leukemia/lymphoma 2)	no change with or without drug	-0.22	-0.17	0	0.92	inactive
49	Mettl13	no change with or without drug	0	0.51	-0.22	0.94	inactive
50	Clec2m (C-type lectin domain family 2, member m)	low cell count with doxorubicin only	-2.81	0.34	-3.04	0.69	active
51	Steap4 (STEAP family member 4)	high cell count without drug only	0.9	2.02	-0.34	1.02	inactive
52	Ebf3 (early B cell factor 3)	no change with or without drug	-0.9	0.17	-0.9	0.86	inactive
53	Pno1 (partner of NOB1 homolog)	low cell count with and without drug	-4.16	-5.56	-0.67	0.57	inactive
54	Mtss2 (MTSS I-BAR domain containing 2)	low cell count with doxorubicin only	-2.02	0.17	-2.14	0.76	active
55	Slc49a4	high cell count with doxorubicin only	2.59	0.84	2.14	1.17	inactive
56	Catsper3 (cation channel, sperm associated 3)	no change with or without drug	-1.35	-0.67	-0.9	0.82	inactive
57	Slc24a1	no change with or without drug	0	0.67	-0.34	0.94	inactive
58	Or5h17 (olfactory receptor family 5 subfamily H member 17)	no change with or without drug	0	0.17	0	0.94	inactive
59	Ms4a2 (membrane-spanning 4-domains, subfamily A, member 2)	no change with or without drug	1.57	1.35	0.79	1.08	inactive
60	Reep2 (receptor accessory protein 2)	no change with or without drug	0.45	-0.17	0.67	0.98	inactive
61	Casp1 (caspase 1)	no change with or without drug	-0.45	0.34	-0.56	0.9	inactive
62	Usp44 (ubiquitin specific peptidase 44)	high cell count without drug only	0.67	2.87	-1.01	1	inactive
63	Gbp7 (guanylate binding protein 7)	no change with or without drug	0.9	0	1.01	1.02	inactive
